Measurements reported in the supplement of paper PMC11348887.
Structures can show the parent of a compound that is named as a salt. Some of the results follow. Small differences around the control level are noise.

test system: hPSC-derived cortical neurons (WA09); experiment: nucleus roundness z-score vs screen plate; higher = rounder nuclei (more mature); details: 5 µM; treatment: days 7-14 after plating, readout day 21

Compound | nucleus roundness z-score
CN(C)CCC(c1ccc(Cl)cc1)c1ccccn1 (centres undefined) [Chlorpheniramine Maleate] | -0.075
COc1ccc(S(=O)(=O)Nc2cccnc2Nc2ccc(O)cc2)cc1 | -1.61
CC[C@]1(O)C[C@@H]2CN(CCc3c([nH]c4ccccc34)[C@@](C(=O)OC)(c3cc4c(cc3OC)N(C)[C@H]3[C@@](O)(C(=O)OC)[C@H](OC(C)=O)[C@]5(CC)C=CCN6CC[C@]43[C@@H]65)C2)C1 [Vinblastine sulfate] | -5.44
CCc1nc(N)nc(N)c1-c1ccc(Cl)cc1 [Pyrimethamine] | -0.42
CC1=C(CC(=O)O)c2cc(F)ccc2/C1=C\c1ccc([S+](C)[O-])cc1 (centres undefined) [Sulindac] | 1.15
CC(=O)OCC(=O)[C@@]1(O)CC[C@H]2[C@@H]3CCC4=CC(=O)CC[C@]4(C)[C@H]3C(=O)C[C@@]21C [Cortisone acetate] | 0.852
Cn1cc(-c2ccc(F)c(C(F)(F)F)c2)nc1C1CCN(c2ncnc3[nH]ncc23)CC1 | -0.881
CC(C)(C)c1ccc(C(O)CCCN2CCC(C(O)(c3ccccc3)c3ccccc3)CC2)cc1 (centres undefined) [Terfenadine] | -9.53
CCN[C@@H]1C[C@H](N)[C@@H](O[C@H]2OC(CN)=CC[C@H]2N)[C@H](O)[C@H]1O[C@H]1OC[C@](C)(O)[C@H](NC)[C@H]1O [Netilmicin Sulfate] | -0.877
N#C/C(=C(/N)Sc1ccc(N)cc1)c1ccccc1C(F)(F)F | 0.433
O=C(CNc1ccc2ccccc2c1)N/N=C/c1cc(Br)c(O)c(Br)c1O | 0.0663
COC(=O)C1=C(C)NC(C)=C(C(=O)OC2CCCN(Cc3ccccc3)C2)C1c1cccc([N+](=O)[O-])c1 (centres undefined) [Benidipine HCl] | -2.96
C[C@@H]1C[C@H]2[C@@H]3CCC4=CC(=O)C=C[C@]4(C)[C@@]3(Cl)[C@@H](O)C[C@]2(C)[C@@]1(OC(=O)c1ccco1)C(=O)CCl [Mometasone furoate] | -0.946
CCO[C@@H]1OC(=O)C[C@@H]1NC(=O)[C@@H]1CCCN1C(=O)[C@@H](NC(=O)c1ccc(N)c(Cl)c1)C(C)(C)C | -1.23
Nc1nc2c(ncn2COC(CO)CO)c(=O)[nH]1 [Ganciclovir] | -1.12
CC(C)C(=O)OCC(=O)[C@@]12O[C@H](C3CCCCC3)O[C@@H]1C[C@H]1[C@@H]3CCC4=CC(=O)C=C[C@]4(C)[C@H]3[C@@H](O)C[C@@]12C [Ciclesonide] | 0.218
Cc1[nH]c(/C=C2\C(=O)Nc3ccc(S(=O)(=O)N(C)c4cccc(Cl)c4)cc32)c(C)c1C(=O)N1CCN(C)CC1 | 0.958
Cc1[nH]c2ccccc2c1CCNCc1ccc(/C=C/C(=O)NO)cc1 [Panobinostat (LBH589)] | -1.83
CC(C)[C@H](C(=O)Nc1ccc(C(=O)NO)cc1)c1ccccc1 | -7.86
COc1ccc(-c2coc3cc(O)ccc3c2=O)cc1 [Formononetin] | -0.6

In the list so far, these contain a carbonyl joined to an NH by a bond outside any ring:
Compound | nucleus roundness z-score
O=C(CNc1ccc2ccccc2c1)N/N=C/c1cc(Br)c(O)c(Br)c1O | 0.0663
CCO[C@@H]1OC(=O)C[C@@H]1NC(=O)[C@@H]1CCCN1C(=O)[C@@H](NC(=O)c1ccc(N)c(Cl)c1)C(C)(C)C | -1.23
Cc1[nH]c2ccccc2c1CCNCc1ccc(/C=C/C(=O)NO)cc1 [Panobinostat (LBH589)] | -1.83
CC(C)[C@H](C(=O)Nc1ccc(C(=O)NO)cc1)c1ccccc1 | -7.86

Next entries follow.

Compound | nucleus roundness z-score
O=C(NOCCO)c1ccc2cncn2c1Nc1ccc(I)cc1F | -0.508
NC1(Cc2ccc(Cl)cc2)CCN(c2ncnc3[nH]ccc23)CC1 | -1.34
O=C(O)c1cc(C(F)(F)F)ccc1N1CC[C@H](OCc2ccccn2)C1 | 0.693
O=C1Nc2ccccc2/C1=C1/Nc2ccccc2C1=O [Indirubin] | 0.0354
CN(C)c1ccc2nc3ccc(=[N+](C)C)cc-3sc2c1 [Methylene Blue] | -1.45
Cc1nc(Nc2ncc(C(=O)Nc3c(C)cccc3Cl)s2)cc(N2CCN(CCO)CC2)n1 [Dasatinib] | 0.181
O=C(c1ccc(/C=C/c2n[nH]c3ccccc23)cc1)N1CCNCC1 | 2.23
COc1cc(C=O)ccc1O [Vanillin] | -1.27
CCn1cc(C(=O)O)c(=O)c2cc(F)c(N3CCNC(C)C3)c(F)c21 (centres undefined) [Lomefloxacin HCl] | 0.205
Nc1ccc(S(=O)(=O)Nc2ncccn2)cc1 [Sodium sulfadiazine] | 0.0175
CCCN[C@H]1CCc2nc(N)sc2C1 [Pramipexole 2HCl Monohydrate] | -1.53
N=C(N)NC(=N)NCCc1ccccc1 [Phenformin HCl] | 0.559
CC1(C)O[C@@H]2C[C@H]3[C@@H]4C[C@H](F)C5=CC(=O)C=C[C@]5(C)[C@@]4(F)[C@@H](O)C[C@]3(C)[C@]2(C(=O)CO)O1 [Fluocinolone Acetonide] | 0.486
Cc1ccc(S(=O)(=O)n2c(N)nc3ccccc32)cc1 [ML130 (Nodinitib-1)] | 1.05
Oc1ccc([C@H]2COc3cc(O)ccc3C2)cc1 [Equol] | 0.933
CO[C@@H]1[C@@H](OC(N)=O)[C@@H](O)[C@H](Oc2ccc3c(O)c(NC(=O)c4ccc(O)c(CC=C(C)C)c4)c(=O)oc3c2C)OC1(C)C [Novobiocin Sodium] | 0.373
Cc1c(O)cccc1C(=O)N[C@@H](CSc1ccccc1)[C@H](O)CN1C[C@H]2CCCC[C@H]2C[C@H]1C(=O)NC(C)(C)C [Nelfinavir Mesylate] | -1.32
COc1cc(C(=O)NS(=O)(=O)c2ccccc2C)ccc1Cc1cn(C)c2ccc(NC(=O)OC3CCCC3)cc12 [Zafirlukast] | -0.8
C[C@@H](O)[C@H]1C(=O)N2C(C(=O)O)=C(S[C@@H]3CN[C@H](CNS(N)(=O)=O)C3)[C@H](C)[C@H]12 [Doripenem Hydrate] | 0.44
